In the assay the target is T1, KIAA1199 (human (endogenous in RA FLS)) (UniProt Q8WUJ3).
T1 sequence: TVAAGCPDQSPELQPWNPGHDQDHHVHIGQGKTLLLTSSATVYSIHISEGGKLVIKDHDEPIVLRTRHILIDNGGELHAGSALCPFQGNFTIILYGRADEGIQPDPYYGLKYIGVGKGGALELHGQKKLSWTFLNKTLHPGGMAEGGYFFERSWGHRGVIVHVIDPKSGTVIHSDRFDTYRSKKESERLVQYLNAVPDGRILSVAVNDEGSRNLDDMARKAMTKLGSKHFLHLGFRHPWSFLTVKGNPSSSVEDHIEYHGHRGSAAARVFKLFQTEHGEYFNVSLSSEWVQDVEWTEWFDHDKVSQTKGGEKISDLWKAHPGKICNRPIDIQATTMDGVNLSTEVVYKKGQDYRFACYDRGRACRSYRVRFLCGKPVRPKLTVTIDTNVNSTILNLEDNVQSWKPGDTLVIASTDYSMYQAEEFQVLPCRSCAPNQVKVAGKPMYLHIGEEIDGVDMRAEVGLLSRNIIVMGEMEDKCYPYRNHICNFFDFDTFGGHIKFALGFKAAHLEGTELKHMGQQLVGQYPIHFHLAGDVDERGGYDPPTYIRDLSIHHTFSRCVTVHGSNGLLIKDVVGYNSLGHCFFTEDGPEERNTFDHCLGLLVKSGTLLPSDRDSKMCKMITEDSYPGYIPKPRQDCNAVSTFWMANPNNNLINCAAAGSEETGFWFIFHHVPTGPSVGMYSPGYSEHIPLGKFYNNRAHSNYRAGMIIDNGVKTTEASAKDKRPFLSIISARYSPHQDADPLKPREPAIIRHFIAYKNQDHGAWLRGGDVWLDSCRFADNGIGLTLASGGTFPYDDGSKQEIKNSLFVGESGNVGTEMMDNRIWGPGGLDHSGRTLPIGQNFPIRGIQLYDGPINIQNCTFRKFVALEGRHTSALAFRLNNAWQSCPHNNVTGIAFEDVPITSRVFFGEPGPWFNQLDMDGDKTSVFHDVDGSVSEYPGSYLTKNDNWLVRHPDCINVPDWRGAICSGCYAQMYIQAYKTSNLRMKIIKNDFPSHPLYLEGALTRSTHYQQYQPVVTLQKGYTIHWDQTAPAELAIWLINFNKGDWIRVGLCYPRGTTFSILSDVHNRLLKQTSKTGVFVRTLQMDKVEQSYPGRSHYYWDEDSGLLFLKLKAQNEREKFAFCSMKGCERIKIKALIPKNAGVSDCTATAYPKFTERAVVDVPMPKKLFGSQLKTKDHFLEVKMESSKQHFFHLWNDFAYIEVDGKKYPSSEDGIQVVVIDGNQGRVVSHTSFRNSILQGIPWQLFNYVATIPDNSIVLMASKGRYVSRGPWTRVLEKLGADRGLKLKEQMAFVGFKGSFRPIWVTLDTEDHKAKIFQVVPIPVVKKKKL
Briefly: affinity purification with mass spectrometry; RA FLS membrane protein extracts incubated overnight with anti-KIAA1199 mAb, Protein A/G magnetic agarose beads; SDS-PAGE, Nano-LC-MS/MS.

Results are given in words; binding and its absence hold for the method and conditions named. Binding seen in cells or lysates may run through a third protein. A yes stands for co-enrichment or nearness to the bait. Other partners may have been found.

B1: ANXA1 (protein, UniProt P04083 1-346)
chain: MAMVSEFLKQAWFIENEEQEYVQTVKSSKGGPGSAVSPYPTFNPSSDVAALHKAIMVKGVDEATIIDILTKRNNAQRQQIKAAYLQETGKPLDETLKKALTGHLEEVVLALLKTPAQFDADELRAAMKGLGTDEDTLIEILASRTNKEIRDINRVYREELKRDLAKDITSDTSGDFRNALLSLAKGDRSEDFGVNEDLADSDARALYEAGERRKGTDVNVFNTILTTRSYPQLRRVFQKYTKYSKHDMNKVLDLELKGDIEKCLTAIVKCATSKPAFFAEKLHQAMKGVGTRHKALIRIMVSRSEIDMNDIKAFYQKMYGISLCQAILDETKGDYEKILVALCGGN
As for B1, the binding result is “binds”.

The record behind these values is article PMC7817834.
